The other results are listed elsewhere or left out.

Amino acid sequences for entries named in this document (tags omitted).
UniProt Q0JBA9, entry or part of it: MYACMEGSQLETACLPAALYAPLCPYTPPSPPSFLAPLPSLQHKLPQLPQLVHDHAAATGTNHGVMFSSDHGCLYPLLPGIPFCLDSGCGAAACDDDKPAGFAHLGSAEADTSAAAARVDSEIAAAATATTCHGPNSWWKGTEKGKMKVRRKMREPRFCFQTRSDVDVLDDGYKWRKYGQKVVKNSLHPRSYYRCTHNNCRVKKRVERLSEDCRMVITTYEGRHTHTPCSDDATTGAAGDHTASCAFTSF

The assay deals with OsWRKY34 (Oryza sativa, UniProt Q0JBA9 1-250). Put plainly: protein-binding microarray (RPBM); PBS, 2% BSA, 51.3 ng/ul salmon testes DNA, 50 uM zinc acetate, 200 nM TF, 25 C, 1 h; high values mean tight binding. To be noted: protein: recombinant; tags: N-terminal polyhistidine and DsRed monomer fusion (pET32a); label: CyDye5-dUTP incorporated in the synthesized complementary strand; 3' TTTTT single-stranded linker to array surface; dsDNA, one strand shown. The method, boiled down:
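The binding signal is fluorescence intensity per array feature (arbitrary units). Readings came from an Axon 4000B scanner after a washed, 2% BSA-blocked, double-stranded custom Agilent array had been incubated for 1 h at 25 °C with 200 nM protein and 50 µM zinc acetate. The protein was a Ni–NTA-purified transcription factor fused N-terminally to polyhistidine and DsRed, expressed in E. coli BL21-CodonPlus.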
On to “ACACCATTTTACATCATTGATTCAGGTCCTGTTTAGTTCGCGGAGTCACCTAGTGCAG”, for which the binding signal is 9420 fluorescence intensity (a.u.). As for “CCACCTTCGTTCTCCGCTTCGGCATTTCGTCGAACACCTCCGGAGTCACCTAGTGCAG”, the binding signal is 9760 fluorescence intensity (a.u.). With “CGGAGTTGCCACCTGCTGCTGCCATGATGCCTCTGTCGCCCGGAGTCACCTAGTGCAG”, the binding signal was 10200 fluorescence intensity (a.u.).

On to “ACTCACACACCCCAAGCCCTAGTCCGGCCGTCGACGCTGTCGGAGTCACCTAGTGCAG”, for which the binding signal is 8690 fluorescence intensity (a.u.). For “ATCACTATTTTTACACCTTAAACTTTGTTTGGTATTCCCACGGAGTCACCTAGTGCAG” the value was 9990 fluorescence intensity (a.u.); for “TATGTTTCAATTTTTCCTATATTATTAGAGTTTACCTTGTCGGAGTCACCTAGTGCAG”, 9170 fluorescence intensity (a.u.); for “TATTTTGGTGCACTTTTTTCCTTGAAAGTTGGCTGTCAATCGGAGTCACCTAGTGCAG”, 10500 fluorescence intensity (a.u.). On to “ATTCTCATCATTGTTGGATTTCCTTAATTCTATTTTTCATCGGAGTCACCTAGTGCAG”, for which the binding signal is 10800 fluorescence intensity (a.u.). On to “TTTATTTGCTTATCGTTTTCTAACATTCTGAACACAAACCCGGAGTCACCTAGTGCAG”, for which the binding signal was 8230 fluorescence intensity (a.u.). The result for “AGTATTATGCCCTTTTTTACTGTATATGCTTAGTTTTTAGCGGAGTCACCTAGTGCAG” reads 8190 fluorescence intensity (a.u.); that for “TTTGTTTTGAGCCGAACAAATCGGTAGTCAGTGGGCGGGGCGGAGTCACCTAGTGCAG”, 11900 fluorescence intensity (a.u.); that for “AGAGAGGAATGTACTGTACAATCCCCATTTTTTTCCCAAGCGGAGTCACCTAGTGCAG”, 8070 fluorescence intensity (a.u.). The result for “TTTTTTTTTACCGGGAGGTGTCTAGGCTCGTTATGTTTTGCGGAGTCACCTAGTGCAG” reads 8860 fluorescence intensity (a.u.).

Consider “TACCTAGTCCAATTGTTTGTGGATTGAATTTGTGTTGGTTCGGAGTCACCTAGTGCAG”, for which the binding signal was 10300 fluorescence intensity (a.u.).

Take “GCGGGACTTGCAGATCCGAGCGGGCGGGGCGGGGCGGGTTCGGAGTCACCTAGTGCAG”: the binding signal is 22000 fluorescence intensity (a.u.). Take “TGGGGTTAAGTTCATGGGCCGCCTAATTGGGTCGGCATTACGGAGTCACCTAGTGCAG”: the binding signal is 8540 fluorescence intensity (a.u.). For “CCAATTTTTATGGTCGGTTTGGTTCATTGGATGTACGTCACGGAGTCACCTAGTGCAG” the value was 9930 fluorescence intensity (a.u.); for “GTACTCTTTTGGTTCTTACTGTACTCTTTAAAAAAAAGTTCGGAGTCACCTAGTGCAG”, 12100 fluorescence intensity (a.u.); for “GTGCGGGCTTTCTTCCTAATTATATATATAAATGGTATAACGGAGTCACCTAGTGCAG”, 8530 fluorescence intensity (a.u.). As to “GTCCTCCGCCGCCGCCGCCTCCTCCGTCGACCCCGCTCGCCGGAGTCACCTAGTGCAG”, the binding signal was 9490 fluorescence intensity (a.u.). In the case of “CAAAATTTCGTGGAATTCAACCGCTTTTCGTCGGAACTGTCGGAGTCACCTAGTGCAG”, the binding signal was 9460 fluorescence intensity (a.u.). For “CCGCCCACCACATATCCTTTTCCTTTTCTTTTCTTTTATTCGGAGTCACCTAGTGCAG” the value was 10300 fluorescence intensity (a.u.); for “TTTCCGCTTTGTAATATATATTTATACCCCTTTCTTCTCTCGGAGTCACCTAGTGCAG”, 9110 fluorescence intensity (a.u.). Regarding “ACATTTTTGTGCAGCCTCTCAAGCCTTATCCTCGTCTCGCCGGAGTCACCTAGTGCAG”, the binding signal was 9120 fluorescence intensity (a.u.). For “CCGAAGATATCAACCAAACAGACCCGAACTTCTTCCCATTCGGAGTCACCTAGTGCAG” the value was 8360 fluorescence intensity (a.u.); for “TGCGACCCCTTTTTCCCGACCTTTCTACAGGCCATCCTCCCGGAGTCACCTAGTGCAG”, 9760 fluorescence intensity (a.u.); for “ATGAACTTACTCCTTTCTTCTTCTTCTTCTTATTTTTTTTCGGAGTCACCTAGTGCAG”, 14200 fluorescence intensity (a.u.).

For the sequence “CACCTCTCCCATGGCACCACCACCACCCTGACGCCGACGCCGGAGTCACCTAGTGCAG”, the binding signal was 8180 fluorescence intensity (a.u.). In the case of “TGTTTGCACTTCATTCCATTCCATTCCACCTCCACTGCTTCGGAGTCACCTAGTGCAG”, the binding signal was 8390 fluorescence intensity (a.u.). The result for “ATACACTGTCTGCACCCACCTCCAGCCTTTGGCACCATTGCGGAGTCACCTAGTGCAG” reads 8660 fluorescence intensity (a.u.); that for “GACGTTTAGATGCTGCAATCGTGCTTGTCAACTTGTCATACGGAGTCACCTAGTGCAG”, 9170 fluorescence intensity (a.u.). As for “TAGTCTTTATGGGATGTATTTCGTTGAGCTAGCTATATGTCGGAGTCACCTAGTGCAG”, the binding signal is 8360 fluorescence intensity (a.u.).

Turning to “GCTGTTATGTTACATGCCCTCCCTGAACTACTATTACTAGCGGAGTCACCTAGTGCAG”, the binding signal was 8080 fluorescence intensity (a.u.).

For the sequence “CTTCCACTGTCTTCTTCCTTCTTGCTTCCTCTCTTCTCTTCGGAGTCACCTAGTGCAG”, the binding signal is 8450 fluorescence intensity (a.u.).

As to “TAGTATATATTTAGGTGTTTTCTCTGTCCTAATTCCTAACCGGAGTCACCTAGTGCAG”, the binding signal was 10100 fluorescence intensity (a.u.). Consider “GTAATTCATAGCTGCTATTCCACATCCGCGCTAACGTCCACGGAGTCACCTAGTGCAG”, for which the binding signal was 9600 fluorescence intensity (a.u.). For “AATAGTCACAGTTCTCGATTAGTTCTACAATTTTGTTATTCGGAGTCACCTAGTGCAG”, the binding signal is 8920 fluorescence intensity (a.u.).

Consider “CTTCTATCATCAACGACAAATCTCCCGTTGTCTTGTCTTCCGGAGTCACCTAGTGCAG”, for which the binding signal is 9520 fluorescence intensity (a.u.). For the sequence “AACAATTATATTTTATTCTCTTATGTCACGCCTTAAGCTTCGGAGTCACCTAGTGCAG”, the binding signal is 9460 fluorescence intensity (a.u.). As for “ATATTGCAAGCCCAAAAAGCCCATCTAACCTATCATATATCGGAGTCACCTAGTGCAG”, the binding signal was 8520 fluorescence intensity (a.u.). For “TTGTGTCCTTTTCGCCTTCCTTCGCATGCACCAGACAAGTCGGAGTCACCTAGTGCAG”, the binding signal is 9280 fluorescence intensity (a.u.).

On to “ACTTGTTCTTCGATCGTCTTCATCTCGGATAGCGCCTGTCCGGAGTCACCTAGTGCAG”, for which the binding signal was 8900 fluorescence intensity (a.u.).

(Values after article PMC7819943, “Rice protein-binding microarrays: a tool to detect cis-acting elements near promoter regions in rice”.)
